# Results as given in the supplement of paper PMC8728848.
# The other results are listed elsewhere or left out.
# What was measured:
# Experiment in all cases: glycan array binding signal (z-score within array); higher = stronger binding
# Settings in all cases: glycan notation: IUPAC condensed, linker removed
# [1] = molecular target: Fuc(a1-3)[Gal3S(b1-4)]GlcNAc6S
# Procedure, shortened: (§1)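 Glycan array binding is given as a within-array Z-score, which can be read as non-binding when negative. The arrays, 3228 of them, came from the Consortium for Functional Glycomics database and were retained only where the protein sequence was available. Z-scores were averaged across arrays of the same protein sequence at different concentrations or buffers and across linkers.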
# [2] = molecular target: Fuc(a1-3)[GalNAc(b1-4)]GlcNAc
# Procedure, shortened: as §1
# [3] = molecular target: Fuc(a1-3)[GalNAc(b1-4)]GlcNAc6S
# Procedure, shortened: as §1
# [4] = molecular target: Fuc(a1-4)GlcNAc
# Procedure, shortened: as §1
# [5] = molecular target: Fuc(b1-3)GlcNAc
# Procedure, shortened: as §1
# [6] = molecular target: Gal(a1-2)Gal
# Procedure, shortened: as §1
# [7] = molecular target: Gal(a1-3)Gal
# Procedure, shortened: as §1
# [8] = molecular target: Gal(a1-3)Gal(b1-3)GlcNAc
# Procedure, shortened: as §1
# [9] = molecular target: Gal(a1-3)Gal(b1-3)GlcNAc(b1-2)Man
# Procedure, shortened: as §1
# [10] = molecular target: Gal(a1-3)Gal(b1-3)GlcNAc(b1-2)Man(a1-3)[Gal(a1-3)Gal(b1-3)GlcNAc(b1-2)Man(a1-6)]Man(b1-4)GlcNAc(b1-4)GlcNAc
# Procedure, shortened: as §1
# [11] = molecular target: Gal(a1-3)Gal(b1-3)GlcNAc(b1-3)GalNAc
# Procedure, shortened: as §1
# [12] = molecular target: Gal(a1-3)Gal(b1-3)GlcNAc(b1-6)GalNAc
# Procedure, shortened: as §1
# [13] = molecular target: Gal(a1-3)Gal(b1-3)[Fuc(a1-4)]GlcNAc(b1-2)Man(a1-3)[Gal(a1-3)Gal(b1-3)[Fuc(a1-4)]GlcNAc(b1-2)Man(a1-6)]Man(b1-4)GlcNAc(b1-4)GlcNAc
# Procedure, shortened: as §1
# [14] = molecular target: Gal(a1-3)Gal(b1-4)Glc
# Procedure, shortened: as §1
# [15] = molecular target: Gal(a1-3)Gal(b1-4)GlcNAc
# Procedure, shortened: as §1
# [16] = molecular target: Gal(a1-3)Gal(b1-4)GlcNAc(b1-2)Man
# Procedure, shortened: as §1
# [17] = molecular target: Gal(a1-3)Gal(b1-4)GlcNAc(b1-2)Man(a1-3)[Gal(a1-3)Gal(b1-4)GlcNAc(b1-2)Man(a1-6)]Man(b1-4)GlcNAc(b1-4)GlcNAc
# Procedure, shortened: as §1
# [18] = molecular target: Gal(a1-3)Gal(b1-4)GlcNAc(b1-3)GalNAc
# Procedure, shortened: as §1
# [19] = molecular target: Gal(a1-3)Gal(b1-4)GlcNAc(b1-6)GalNAc
# Procedure, shortened: as §1
# [20] = molecular target: Gal(a1-3)Gal(b1-4)[Fuc(a1-3)]GlcNAc
# Procedure, shortened: as §1
# [21] = molecular target: Gal(a1-3)Gal(b1-4)[Fuc(a1-3)]GlcNAc(b1-2)Man(a1-3)[Gal(a1-3)Gal(b1-4)[Fuc(a1-3)]GlcNAc(b1-2)Man(a1-6)]Man(b1-4)GlcNAc(b1-4)GlcNAc
# Procedure, shortened: as §1
# [22] = molecular target: Gal(a1-3)GalNAc
# Procedure, shortened: as §1
# [23] = molecular target: Gal(a1-3)[Gal(a1-4)]Gal(b1-4)GlcNAc
# Procedure, shortened: as §1
# [24] = molecular target: Gal(a1-4)Gal(b1-3)GlcNAc(b1-2)Man(a1-3)[Gal(a1-4)Gal(b1-3)GlcNAc(b1-2)Man(a1-6)]Man(b1-4)GlcNAc(b1-4)GlcNAc
# Procedure, shortened: as §1
# [25] = molecular target: Gal(a1-4)Gal(b1-4)Glc
# Procedure, shortened: as §1
# [26] = molecular target: Gal(a1-4)Gal(b1-4)GlcNAc
# Procedure, shortened: as §1
# [27] = molecular target: Gal(a1-4)Gal(b1-4)GlcNAc(b1-2)Man(a1-3)[Gal(a1-4)Gal(b1-4)GlcNAc(b1-2)Man(a1-6)]Man(b1-4)GlcNAc(b1-4)GlcNAc
# Procedure, shortened: as §1
# [28] = molecular target: Gal(a1-4)Gal(b1-4)GlcNAc(b1-3)Gal(b1-4)Glc
# Procedure, shortened: as §1
# [29] = molecular target: Gal(a1-4)GlcNAc
# Procedure, shortened: as §1
# [30] = molecular target: Gal(a1-6)Glc
# Procedure, shortened: as §1
# [31] = molecular target: Gal(b1-2)Gal
# Procedure, shortened: as §1
# [32] = molecular target: Gal(b1-3)Gal
# Procedure, shortened: as §1
# [33] = molecular target: Gal(b1-3)Gal(b1-4)GlcNAc
# Procedure, shortened: as §1
# [34] = molecular target: Gal(b1-3)GalNAc
# Procedure, shortened: as §1
# [35] = molecular target: Gal(b1-3)GalNAc(a1-3)[Fuc(a1-2)]Gal(b1-4)Glc
# Procedure, shortened: as §1
# [36] = molecular target: Gal(b1-3)GalNAc(a1-3)[Fuc(a1-2)]Gal(b1-4)GlcNAc
# Procedure, shortened: as §1
# [37] = molecular target: Gal(b1-3)GalNAc(b1-3)Gal
# Procedure, shortened: as §1
# [38] = molecular target: Gal(b1-3)GalNAc(b1-3)Gal(a1-4)Gal(b1-4)Glc
# Procedure, shortened: as §1
# [39] = molecular target: Gal(b1-3)GalNAc(b1-4)Gal(b1-4)Glc
# Procedure, shortened: as §1
# [40] = molecular target: Gal(b1-3)GalNAc(b1-4)[Neu5Ac(a2-3)]Gal(b1-4)Glc
# Procedure, shortened: as §1
# [41] = molecular target: Gal(b1-3)GlcNAc
# Procedure, shortened: as §1
# [42] = molecular target: Gal(b1-3)GlcNAc(a1-3)Gal(b1-4)GlcNAc
# Procedure, shortened: as §1
# [43] = molecular target: Gal(b1-3)GlcNAc(a1-6)Gal(b1-4)GlcNAc
# Procedure, shortened: as §1
# [44] = molecular target: Gal(b1-3)GlcNAc(b1-2)Man
# Procedure, shortened: as §1
# [45] = molecular target: Gal(b1-3)GlcNAc(b1-2)Man(a1-3)[Gal(b1-3)GlcNAc(b1-2)Man(a1-6)]Man(b1-4)GlcNAc(b1-4)GlcNAc
# Procedure, shortened: as §1
binder,measurement,setting,value
SJCP1531 (Schistosoma japonicum) (protein) MFKVRIINLVNISTVLLLINLLQTKSQVNVEQLVTVLEVNIKAQLKNKTTEVLVEWNPLYQDNSMPEYRKLLDETCKLFLPFVNEKVPPSTYGGECTNANFSEAPQDGSYSRVNAELRLIYKYSDNPQIQTDRLQDDLNDREEFITSESSFVAYNPKFTVKIEKLFIPISESQTTPPPTTAKNDASKKDDDDNGGEDSKAPIDTFAMTASGNKGKKDDDDNGGEDSKAPIDTFAMTASGSKDERSTWTIIGIITLVVLIFVVIGGGITVFVKRC,glycan array binding signal (z-score),[1],0.461
same,glycan array binding signal (z-score),[2],0.047
same,glycan array binding signal (z-score),[3],-0.037
same,glycan array binding signal (z-score),[4],-0.391
same,glycan array binding signal (z-score),[5],0.027
same,glycan array binding signal (z-score),[6],-0.287
same,glycan array binding signal (z-score),[7],0.7
same,glycan array binding signal (z-score),[8],-1.22
same,glycan array binding signal (z-score),[9],-0.185
same,glycan array binding signal (z-score),[10],1.01
same,glycan array binding signal (z-score),[11],-1.82
same,glycan array binding signal (z-score),[12],-0.915
same,glycan array binding signal (z-score),[13],0.362
same,glycan array binding signal (z-score),[14],-0.638
same,glycan array binding signal (z-score),[15],-0.844
same,glycan array binding signal (z-score),[16],-0.54
same,glycan array binding signal (z-score),[17],1.01
same,glycan array binding signal (z-score),[18],-0.726
same,glycan array binding signal (z-score),[19],-0.651
same,glycan array binding signal (z-score),[20],-0.201
same,glycan array binding signal (z-score),[21],0.047
same,glycan array binding signal (z-score),[22],-0.507
same,glycan array binding signal (z-score),[23],0.766
same,glycan array binding signal (z-score),[24],0.323
same,glycan array binding signal (z-score),[25],-0.592
same,glycan array binding signal (z-score),[26],1.87
same,glycan array binding signal (z-score),[27],2.24
same,glycan array binding signal (z-score),[28],1.03
same,glycan array binding signal (z-score),[29],-0.402
same,glycan array binding signal (z-score),[30],-1.31
same,glycan array binding signal (z-score),[31],-0.368
same,glycan array binding signal (z-score),[32],3.29
same,glycan array binding signal (z-score),[33],0.064
same,glycan array binding signal (z-score),[34],0.084
same,glycan array binding signal (z-score),[35],0.216
same,glycan array binding signal (z-score),[36],0.345
same,glycan array binding signal (z-score),[37],-0.062
same,glycan array binding signal (z-score),[38],-0.436
same,glycan array binding signal (z-score),[39],-0.577
same,glycan array binding signal (z-score),[40],0.895
same,glycan array binding signal (z-score),[41],0.101
same,glycan array binding signal (z-score),[42],-0.336
same,glycan array binding signal (z-score),[43],-0.922
same,glycan array binding signal (z-score),[44],1.37
same,glycan array binding signal (z-score),[45],-0.297

# 10 consecutive entries out of the list so far:
binder,measurement,setting,value
SJCP1531 (Schistosoma japonicum) (protein) MFKVRIINLVNISTVLLLINLLQTKSQVNVEQLVTVLEVNIKAQLKNKTTEVLVEWNPLYQDNSMPEYRKLLDETCKLFLPFVNEKVPPSTYGGECTNANFSEAPQDGSYSRVNAELRLIYKYSDNPQIQTDRLQDDLNDREEFITSESSFVAYNPKFTVKIEKLFIPISESQTTPPPTTAKNDASKKDDDDNGGEDSKAPIDTFAMTASGNKGKKDDDDNGGEDSKAPIDTFAMTASGSKDERSTWTIIGIITLVVLIFVVIGGGITVFVKRC,glycan array binding signal (z-score),[26],1.87
same,glycan array binding signal (z-score),[27],2.24
same,glycan array binding signal (z-score),[28],1.03
same,glycan array binding signal (z-score),[29],-0.402
same,glycan array binding signal (z-score),[30],-1.31
same,glycan array binding signal (z-score),[31],-0.368
same,glycan array binding signal (z-score),[32],3.29
same,glycan array binding signal (z-score),[33],0.064
same,glycan array binding signal (z-score),[34],0.084
same,glycan array binding signal (z-score),[35],0.216
